Reference: the supplement of paper PMC10032668
Some of the results follow. The list holds hits alone, and they repeat only in part.

Protein sequences, listed by entry. Tags and fused reporters are not part of them.
RGPD5, Q99666, UniProt Q99666, whole entry: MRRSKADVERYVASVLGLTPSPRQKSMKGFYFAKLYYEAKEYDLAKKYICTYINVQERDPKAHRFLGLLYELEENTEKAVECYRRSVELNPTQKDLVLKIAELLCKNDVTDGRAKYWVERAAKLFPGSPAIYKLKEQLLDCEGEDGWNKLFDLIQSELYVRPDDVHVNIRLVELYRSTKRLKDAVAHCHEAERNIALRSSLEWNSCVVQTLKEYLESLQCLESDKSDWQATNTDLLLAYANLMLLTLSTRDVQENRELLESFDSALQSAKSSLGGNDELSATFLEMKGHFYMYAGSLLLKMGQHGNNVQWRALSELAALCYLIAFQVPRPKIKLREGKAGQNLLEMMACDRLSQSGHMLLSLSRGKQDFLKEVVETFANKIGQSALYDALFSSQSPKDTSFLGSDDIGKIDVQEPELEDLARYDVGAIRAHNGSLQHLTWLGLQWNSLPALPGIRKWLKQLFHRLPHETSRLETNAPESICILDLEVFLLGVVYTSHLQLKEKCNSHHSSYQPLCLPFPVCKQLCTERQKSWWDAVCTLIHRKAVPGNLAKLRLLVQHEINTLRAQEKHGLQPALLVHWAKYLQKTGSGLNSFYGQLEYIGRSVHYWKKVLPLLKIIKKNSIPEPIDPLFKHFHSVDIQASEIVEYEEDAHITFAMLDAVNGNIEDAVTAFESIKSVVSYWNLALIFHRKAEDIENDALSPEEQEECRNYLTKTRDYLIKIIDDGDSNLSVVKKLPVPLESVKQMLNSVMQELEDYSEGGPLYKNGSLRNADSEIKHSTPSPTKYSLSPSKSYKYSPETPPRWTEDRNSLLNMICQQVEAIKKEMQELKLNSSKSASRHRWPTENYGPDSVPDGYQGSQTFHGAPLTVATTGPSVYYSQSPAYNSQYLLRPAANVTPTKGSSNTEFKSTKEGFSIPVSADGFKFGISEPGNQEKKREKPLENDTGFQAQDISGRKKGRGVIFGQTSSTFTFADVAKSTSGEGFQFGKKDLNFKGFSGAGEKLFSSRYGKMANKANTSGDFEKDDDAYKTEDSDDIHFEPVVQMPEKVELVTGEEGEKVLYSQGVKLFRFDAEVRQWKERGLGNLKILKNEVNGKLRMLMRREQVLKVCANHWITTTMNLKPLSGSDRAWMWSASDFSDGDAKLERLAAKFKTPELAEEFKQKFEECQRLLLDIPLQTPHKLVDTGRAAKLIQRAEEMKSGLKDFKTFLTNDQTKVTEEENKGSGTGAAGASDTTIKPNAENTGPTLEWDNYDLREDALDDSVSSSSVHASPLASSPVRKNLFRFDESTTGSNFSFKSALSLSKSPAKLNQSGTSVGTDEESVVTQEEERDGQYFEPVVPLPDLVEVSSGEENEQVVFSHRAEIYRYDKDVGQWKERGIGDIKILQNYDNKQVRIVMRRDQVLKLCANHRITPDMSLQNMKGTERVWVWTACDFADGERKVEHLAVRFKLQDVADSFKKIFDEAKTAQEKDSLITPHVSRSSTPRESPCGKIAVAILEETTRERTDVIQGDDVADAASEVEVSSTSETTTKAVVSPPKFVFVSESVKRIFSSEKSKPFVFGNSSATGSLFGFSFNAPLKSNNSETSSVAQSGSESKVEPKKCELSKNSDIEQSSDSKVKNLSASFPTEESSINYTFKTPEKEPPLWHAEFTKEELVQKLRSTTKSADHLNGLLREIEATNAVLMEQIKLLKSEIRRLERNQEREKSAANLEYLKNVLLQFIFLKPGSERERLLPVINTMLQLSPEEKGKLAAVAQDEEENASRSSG

Columns and labels:
Assay in all cases: PRISMA enrichment of interactor (LFQ) in peptide spot vs all other peptide spots (log2 fold change); higher = stronger / more specific binding of the interactor to the peptide
AATF, Q9NY61 = molecular target: AATF, Q9NY61
Procedure: (§1)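 PRISMA: 15-aa overlapping tiles (offset 8 aa) of 60 microproteins, plus SOS1/GLUT1 control peptides, were spot-synthesized on cellulose membranes in triplicate. Membranes were incubated with benzonase-treated HEK293T lysate, and bound proteins were identified by LC-MS/MS with LFQ. Enrichment is the log2 fold change of each protein in one spot versus all other spots. Only interactors passing the significance cutoff are listed.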

CCDC77, Q9BR77 = molecular target: CCDC77, Q9BR77
Procedure: as §1

DDX39B, Q13838 = molecular target: DDX39B, Q13838
Procedure: as §1

EIF3M, Q7L2H7 = molecular target: EIF3M, Q7L2H7
Procedure: as §1

FAM107B, Q9H098 = molecular target: FAM107B, Q9H098
Procedure: as §1

GATA6, Q92908 = molecular target: GATA6, Q92908
Procedure: as §1

GTF2F2, P13984 = molecular target: GTF2F2, P13984
Procedure: as §1

HACD3, Q9P035 = molecular target: HACD3, Q9P035
Procedure: as §1

HOMER1, Q86YM7 = molecular target: HOMER1, Q86YM7
Procedure: as §1

LEO1, Q8WVC0 = molecular target: LEO1, Q8WVC0
Procedure: as §1

LETM1, O95202 = molecular target: LETM1, O95202
Procedure: as §1

LYAR, Q9NX58 = molecular target: LYAR, Q9NX58
Procedure: as §1

MAIP1, Q8WWC4 = molecular target: MAIP1, Q8WWC4
Procedure: as §1

MCM10, Q7L590 = molecular target: MCM10, Q7L590
Procedure: as §1

MED20, Q9H944 = molecular target: MED20, Q9H944
Procedure: as §1

MEPCE, Q7L2J0 = molecular target: MEPCE, Q7L2J0
Procedure: as §1

MRPL40, Q9NQ50 = molecular target: MRPL40, Q9NQ50
Procedure: as §1

MRPS18B, Q9Y676 = molecular target: MRPS18B, Q9Y676
Procedure: as §1

MRPS35, P82673 = molecular target: MRPS35, P82673
Procedure: as §1

MRPS9, P82933 = molecular target: MRPS9, P82933
Procedure: as §1

MTOR, P42345 = molecular target: MTOR, P42345
Procedure: as §1

PA2G4, Q9UQ80 = molecular target: PA2G4, Q9UQ80
Procedure: as §1

PINX1, Q96BK5 = molecular target: PINX1, Q96BK5
Procedure: as §1

POLR1C, O15160 = molecular target: POLR1C, O15160
Procedure: as §1

QARS = molecular target: QARS
Procedure: as §1

RBX1, P62877 = molecular target: RBX1, P62877
Procedure: as §1

RGPD5, Q99666 = molecular target: RGPD5, Q99666
Procedure: as §1

RNH1, P13489 = molecular target: RNH1, P13489
Procedure: as §1

SART3, Q15020 = molecular target: SART3, Q15020
Procedure: as §1

SRSF8, Q9BRL6 = molecular target: SRSF8, Q9BRL6
Procedure: as §1

TOMM40, O96008 = molecular target: TOMM40, O96008
Procedure: as §1

TRIP13, Q15645 = molecular target: TRIP13, Q15645
Procedure: as §1

UBR4, Q5T4S7 = molecular target: UBR4, Q5T4S7
Procedure: as §1

USP39, Q53GS9 = molecular target: USP39, Q53GS9
Procedure: as §1

ZDBF2, Q9HCK1 = molecular target: ZDBF2, Q9HCK1
Procedure: as §1

Binder: AVPVTCGDTARSALQ [PVT1]
- PRISMA enrichment of interactor (log2) (AATF, Q9NY61): 4.79
- PRISMA enrichment of interactor (log2) (CCDC77, Q9BR77): 9.58
- PRISMA enrichment of interactor (log2) (DDX39B, Q13838): 5.38
- PRISMA enrichment of interactor (log2) (EIF3M, Q7L2H7): 4.96
- PRISMA enrichment of interactor (log2) (FAM107B, Q9H098): 5.56
- PRISMA enrichment of interactor (log2) (GATA6, Q92908): 5.03
- PRISMA enrichment of interactor (log2) (GTF2F2, P13984): 6.06
- PRISMA enrichment of interactor (log2) (HACD3, Q9P035): 5.32
- PRISMA enrichment of interactor (log2) (HOMER1, Q86YM7): 4.68
- PRISMA enrichment of interactor (log2) (LEO1, Q8WVC0): 4.91
- PRISMA enrichment of interactor (log2) (LETM1, O95202): 10
- PRISMA enrichment of interactor (log2) (LYAR, Q9NX58): 4.67
- PRISMA enrichment of interactor (log2) (MAIP1, Q8WWC4): 7.88
- PRISMA enrichment of interactor (log2) (MCM10, Q7L590): 4.38
- PRISMA enrichment of interactor (log2) (MED20, Q9H944): 4.85
- PRISMA enrichment of interactor (log2) (MEPCE, Q7L2J0): 6.29
- PRISMA enrichment of interactor (log2) (MRPL40, Q9NQ50): 4.72
- PRISMA enrichment of interactor (log2) (MRPS18B, Q9Y676): 6.25
- PRISMA enrichment of interactor (log2) (MRPS35, P82673): 4.65
- PRISMA enrichment of interactor (log2) (MRPS9, P82933): 5.4
- PRISMA enrichment of interactor (log2) (MTOR, P42345): 7.77
- PRISMA enrichment of interactor (log2) (PA2G4, Q9UQ80): 5.4
- PRISMA enrichment of interactor (log2) (PINX1, Q96BK5): 5.72
- PRISMA enrichment of interactor (log2) (POLR1C, O15160): 5.79
- PRISMA enrichment of interactor (log2) (QARS): 7.66
- PRISMA enrichment of interactor (log2) (RBX1, P62877): 6.91
- PRISMA enrichment of interactor (log2) (RGPD5, Q99666): 6.59
- PRISMA enrichment of interactor (log2) (RNH1, P13489): 6.64
- PRISMA enrichment of interactor (log2) (SART3, Q15020): 5.69
- PRISMA enrichment of interactor (log2) (SRSF8, Q9BRL6): 4.64
- PRISMA enrichment of interactor (log2) (TOMM40, O96008): 4.91
- PRISMA enrichment of interactor (log2) (TRIP13, Q15645): 4.68
- PRISMA enrichment of interactor (log2) (UBR4, Q5T4S7): 4.77
- PRISMA enrichment of interactor (log2) (USP39, Q53GS9): 4.51
- PRISMA enrichment of interactor (log2) (ZDBF2, Q9HCK1): 4.31
